Experimental data reported in PMC5596338 (Journal of Bone and Mineral Research, 2017).

Assay: Mineral binding affinity: elution from hydroxyapatite (HAP) columns by FPLC
Format: physicochemical
Settings: HAP column, mean ± SE

NCCCC(O)(P(=O)(O)O)P(=O)(O)O [Alendronate, alendronate]
HAP affinity (mean retention time/min): 17.5 ± 0.14 min
